From article PMC5476196, “Uptake, biotransformation and elimination of selected pharmaceuticals in a freshwater invertebrate measured using liquid chromatography tandem mass spectrometry” (Chemosphere, 2017)

Tests used:
in vivo = conditions: both, Gammarus pulex, in vivo, G. pulex
Method: (§1) Individual adult organisms (n = 25), both male and female (>5 mg wet weight) were placed in Pyrex glass beakers. G. pulex were carefully transferred to beakers using blunt forceps to avoid any harm to the organisms before exposure. Each beaker contained 25 organisms in 200 mL of exposure media (AFW and test compound). […] All exposure media contained <0.001% of organic solvent (methanol). A total of 300 organisms were used per compound exposure and were sampled for n = 3 per time-point. […] These were subsequently analysed for background contamination. […] Each animal specimen was rinsed with ultra-pure water and then frozen at −20 °C.
(§2) Water samples collected from exposure experiments were filtered using Whatman filters (0.2 μM) and directly injected onto the LC-MS/MS for analysis. For G. pulex, A mass of 50 mg of lyophilised and ground material was extracted by glass bead pulverisation in 5 mL of acetonitrile and diluted with 100 mL of ammonium acetate buffer (10 mM) for loading onto Waters HLB solid phase extraction (SPE) cartridges (6 cc, 200 mg sorbent).
(§3) Briefly, separations were performed on an Agilent HP1100 LC system configured with a Waters SunFire reversed-phase C18 column (150 mm × 2.1 mm, 2.5 μM particle size). […] Detection was performed using a Waters Quattro triple quadrupole mass spectrometer with electrospray ionisation operated in positive and negative polarity switching mode. Quantification of analytes was performed using 3-point internal standard matrix-matched calibration using the peak area ratio of non-labelled analyte (precursor range: 50–300 ng g^−1, biotransformation product range: 50–150 ng g^−1) to the stable isotope labelled internal standard (SIL-IS) (100 ng g^−1).
(§4) Herein, the authors define BCFtotal as the summation of the BCF of both parent/precursor and biotransformation products (i.e. the total body burden). Whereas, BCFparent will be used to describe the BCF determined for the parent compound alone.

Gammarus pulex = assay: in vivo; conditions: exposure 1 μg L^−1 (warfarin, propranolol 10 μg L^−1)
Method: as §1, §2, §3, §4

[1] = Method: as §1, §2
[2] = sequential, Levenberg-Marquardt algorithm
[3] = sequential, linear regression on elimination data

COC(=O)C1=C(C)NC(C)=C(C(=O)OC)C1c1ccccc1[N+](=O)[O-] [Nifedipine, nifedipine]
concentration at 6 h (in vivo; pH 8.19, Concentration, 6h Mean, n=3, exposure 1 μg L^−1 (warfarin, propranolol 10 μg L^−1)): 19 ng/g
concentration at 24 h (in vivo; pH 8.19, Concentration, 24h Mean, n=3, exposure 1 μg L^−1 (warfarin, propranolol 10 μg L^−1)): 20 ng/g
concentration at 48 h (in vivo; pH 8.19, Concentration, 48h Mean, n=3, exposure 1 μg L^−1 (warfarin, propranolol 10 μg L^−1)): 16 ng/g
concentration at 48 h (in vivo; pH 8.19, internal concentration at the end of the uptake phase, 48 h, exposure 1 μg L^−1 (propranolol 10 μg L^−1)): ≤ 51 ng/g
BCFparent, Sequential a (Gammarus pulex; [2]): 31 L/kg
k1, Sequential a (Gammarus pulex; [2]): 0.7802
k2, Sequential a (Gammarus pulex; [2]): 0.0248
BCFparent, Sequential b (Gammarus pulex; [3]): 31 L/kg
k1, Sequential b (Gammarus pulex; [3]): 0.7802
k2, Sequential b (Gammarus pulex; [3]): 0.0248
BCFparent, Simultaneous (Gammarus pulex; simultaneous parametrisation): 16 L/kg
k1 (uptake rate constant), Simultaneous (Gammarus pulex; simultaneous parametrisation): 4677.31
k2 (depuration rate constant), Simultaneous (Gammarus pulex; simultaneous parametrisation): 295.66
Concentration, 24 h ([1]; exposure media after 24 h of exposure with Day 1 solution, n = 3): 0.59 ng/mL
Concentration, 48 h ([1]; exposure media after 24 h of exposure with Day 2 solution, n = 3 (propranolol n = 2)): 0.49 ng/mL
average decrease of aqueous concentration ([1]; exposure media, across both days of the uptake phase): 39%
Concentration, Day 2 (initial pharmaceutical concentration on day 2) ([1]; exposure media, n = 2): 0.82 ng/mL
Concentration, Day 1 (initial pharmaceutical concentration on day 1) ([1]; exposure media, n = 3, nominal 1 μg L^−1 (propranolol 10 μg L^−1)): 0.94 ng/mL
